# Data as given in patent EP0349545 (dated 1993).
# Strings that start with PEPTIDE1 are HELM notation: dots part the residues, brackets hold end groups and non-standard residues.
# Assay: Boc solid-phase peptide synthesis; Boc-Tyr(Bzl)-Merrifield support (0.67 mmol/g; 1% of DVB; 200 - 400 mesh); benzhydrylamine supporting polymer also named
# Settings: whole synthesis, scale of the general procedure 1.22 g of resin
substance,measurement,value
"PEPTIDE1{T.A.P.R.S.L.R.R.S.S.C.F.G.G.R.M.D.R.I.G.A.Q.S.G.L.G.C.N.S.F.R.Y}$PEPTIDE1,PEPTIDE1,11:R3-27:R3$$$V2.0",final purity (method not given),more than 98%
